Results: PubChem BioAssay AID186 (DTP/NCI, 2004)
Values are animals surviving of animals treated; these mice carried no tumour. Survivors were counted at the toxicity check, usually on the fifth day, unless a day is given; later deaths do not show. Schedule codes are those of the source, read here as Q, the interval in days (D) or hours (H), X, the number of doses. Some doses were run more than once; the values are given in rising order.

Test system: B6D2F1 mice, nontumored toxicity test, survival
Assay: NCI In Vivo Anticancer Drug Screen. Data for tumor model Nontumored Animals (Toxicity Test) in B6D2F1 (BDF1) mice

For `COc1cccc2c1C(=O)c1c(O)c3c(c(O)c1C2=O)C[C@@](O)(C(=O)CO)C[C@@H]3OC1CC(N)C(O)C(C)O1` (stereo partly drawn), the survivor count (dose: 0.28 mg/kg/injection, schedule: Q03HX008 (ip), vehicle: water) was 6 of 6, the survivor count (dose: 0.37 mg/kg/injection, schedule: Q01DX009 (ip), vehicle: none) was 8 of 8 and the survivor count (dose: 0.37 mg/kg/injection, schedule: Q03HX008 (ip), vehicle: none) was 8 of 8. For the same molecule, the survivor count (dose: 0.47 mg/kg/injection, schedule: Q03HX008 (ip), vehicle: water) was 6 of 6, the survivor count (dose: 0.5 mg/kg/injection, schedule: Q01DX009 (ip), vehicle: water) was 6 of 6 and the survivor count (dose: 0.5 mg/kg/injection, schedule: Q03HX024 (ip), vehicle: water) was 5 of 6. The survivor count (dose: 0.5 mg/kg/injection, schedule: Q04DX003 (ip), vehicle: saline) was 5 of 5, the survivor count (dose: 0.65 mg/kg/injection, schedule: Q03HX008 (ip), vehicle: water) was 8 of 8 and the survivor count (dose: 0.65 mg/kg/injection, schedule: Q03HX016 (ip), vehicle: water) was 8 of 8. The survivor count (dose: 0.75 mg/kg/injection, schedule: Q01DX001 (ip), vehicle: none) was 8 of 8, the survivor count (dose: 0.75 mg/kg/injection, schedule: Q01DX009 (ip), vehicle: none) was 8 of 8 and the survivor count (dose: 0.75 mg/kg/injection, schedule: Q03HX008 (ip), vehicle: none) was 5 of 8 and 8 of 8. For the same molecule, the survivor count (dose: 0.75 mg/kg/injection, schedule: Q04DX003 (ip), vehicle: none) was 8 of 8, the survivor count (dose: 0.78 mg/kg/injection, schedule: Q03HX008 (ip), vehicle: water) was 6 of 6 and the survivor count (dose: 1.0 mg/kg/injection, schedule: Q01DX009 (ip), vehicle: water) was 6 of 6. The survivor count (dose: 1.0 mg/kg/injection, schedule: Q03HX008 (ip), vehicle: water) was 6 of 6, the survivor count (dose: 1.0 mg/kg/injection, schedule: Q03HX024 (ip), vehicle: water) was 6 of 6 and the survivor count (dose: 1.0 mg/kg/injection, schedule: Q04DX003 (ip), vehicle: saline) was 5 of 5. The survivor count (dose: 1.08 mg/kg/injection, schedule: Q03HX008 (ip), vehicle: water) was 8 of 8, the survivor count (dose: 1.08 mg/kg/injection, schedule: Q03HX016 (ip), vehicle: water) was 8 of 8 and the survivor count (dose: 1.17 mg/kg/injection, schedule: Q03HX008 (ip), vehicle: water) was 6 of 6. For the same molecule, the survivor count (dose: 1.17 mg/kg/injection, schedule: Q04DX003 (ip), vehicle: water) was 6 of 6, the survivor count (dose: 1.5 mg/kg/injection, schedule: Q01DX001 (ip), vehicle: none) was 8 of 8 and the survivor count (dose: 1.5 mg/kg/injection, schedule: Q01DX009 (ip), vehicle: none) was 8 of 8. The survivor count (dose: 1.5 mg/kg/injection, schedule: Q03HX008 (ip), vehicle: none) was 8 of 8, the survivor count (dose: 1.5 mg/kg/injection, schedule: Q04DX003 (ip), vehicle: none) was 8 of 8 and the survivor count (dose: 1.75 mg/kg/injection, schedule: Q03HX008 (ip), vehicle: water) was 6 of 6. The survivor count (dose: 1.75 mg/kg/injection, schedule: Q04DX003 (ip), vehicle: water) was 6 of 6, the survivor count (dose: 1.8 mg/kg/injection, schedule: Q03HX008 (ip), vehicle: water) was 8 of 8 and the survivor count (dose: 1.8 mg/kg/injection, schedule: Q03HX016 (ip), vehicle: water) was 8 of 8. The survivor count (dose: 2.0 mg/kg/injection, schedule: Q01DX009 (ip), vehicle: water) was 6 of 6, the survivor count (dose: 2.0 mg/kg/injection, schedule: Q03HX008 (ip), vehicle: water) was 6 of 6 and the survivor count (dose: 2.0 mg/kg/injection, schedule: Q03HX024 (ip), vehicle: water) was 6 of 6. For the same molecule, the survivor count (dose: 2.0 mg/kg/injection, schedule: Q04DX003 (ip), vehicle: saline) was 5 of 5, the survivor count (dose: 2.4 mg/kg/injection, schedule: Q04DX003 (ip), vehicle: saline) was 4 of 4 and the survivor count (dose: 2.5 mg/kg/injection, schedule: Q01DX001 (ip), vehicle: water) was 8 of 8. The survivor count (dose: 2.5 mg/kg/injection, schedule: Q04DX003 (ip), vehicle: water) was 6 of 6, the survivor count (dose: 2.6 mg/kg/injection, schedule: Q04DX003 (ip), vehicle: water) was 6 of 6 and the survivor count (dose: 3.0 mg/kg/injection, schedule: Q01DX001 (ip), vehicle: none) was 8 of 8. For the same molecule, the survivor count (dose: 3.0 mg/kg/injection, schedule: Q01DX009 (ip), vehicle: none) was 8 of 8, the survivor count (dose: 3.0 mg/kg/injection, schedule: Q03HX008 (ip), vehicle: none) was 7 of 8 and 8 of 8 and the survivor count (dose: 3.0 mg/kg/injection, schedule: Q03HX008 (ip), vehicle: water) was 8 of 8. The survivor count (dose: 3.0 mg/kg/injection, schedule: Q03HX016 (ip), vehicle: water) was 4 of 8, 5 of 8, 7 of 8, the survivor count (dose: 3.0 mg/kg/injection, schedule: Q04DX003 (ip), vehicle: none) was 8 of 8 and the survivor count (dose: 3.9 mg/kg/injection, schedule: Q01DX001 (ip), vehicle: water) was 6 of 6. For the same molecule, the survivor count (dose: 3.9 mg/kg/injection, schedule: Q04DX003 (ip), vehicle: water) was 6 of 6, the survivor count (dose: 4.0 mg/kg/injection, schedule: Q01DX001 (ip), vehicle: saline) was 10 of 10 and 4 of 4 and the survivor count (dose: 4.0 mg/kg/injection, schedule: Q03HX008 (ip), vehicle: water) was 4 of 6. The survivor count (dose: 4.0 mg/kg/injection, schedule: Q04DX003 (ip), vehicle: saline) was 4 of 4 and 5 of 5, the survivor count (dose: 5.0 mg/kg/injection, schedule: Q01DX001 (ip), vehicle: water) was 6 of 6 and 8 of 8 and the survivor count (dose: 5.0 mg/kg/injection, schedule: Q04DX003 (ip), vehicle: water) was 6 of 6. For the same molecule, the survivor count (dose: 5.0 mg/kg/injection, schedule: Q08DX002 (ip), vehicle: water) was 6 of 6, the survivor count (dose: 5.9 mg/kg/injection, schedule: Q01DX001 (ip), vehicle: water) was 3 of 3 and the survivor count (dose: 5.9 mg/kg/injection, schedule: Q04DX003 (ip), vehicle: water) was 6 of 6. The survivor count (dose: 6.0 mg/kg/injection, schedule: Q01DX001 (ip), vehicle: none) was 8 of 8, the survivor count (dose: 6.0 mg/kg/injection, schedule: Q04DX003 (ip), vehicle: none) was 8 of 8 and the survivor count (dose: 6.67 mg/kg/injection, schedule: Q04DX003 (ip), vehicle: saline) was 2 of 3. For the same molecule, the survivor count (dose: 6.7 mg/kg/injection, schedule: Q01DX001 (ip), vehicle: saline) was 10 of 10, the survivor count (dose: 8.0 mg/kg/injection, schedule: Q01DX001 (ip), vehicle: saline) was 10 of 10 and 4 of 4 and the survivor count (dose: 8.0 mg/kg/injection, schedule: Q04DX003 (ip), vehicle: saline) was 5 of 5. The survivor count (dose: 8.9 mg/kg/injection, schedule: Q01DX001 (ip), vehicle: water) was 6 of 6, the survivor count (dose: 8.9 mg/kg/injection, schedule: Q04DX003 (ip), vehicle: water) was 6 of 6 and the survivor count (dose: 10.0 mg/kg/injection, schedule: Q01DX001 (ip), vehicle: saline) was 10 of 10. For the same molecule, the survivor count (dose: 10.0 mg/kg/injection, schedule: Q01DX001 (ip), vehicle: water) was 6 of 6 and 8 of 8, the survivor count (dose: 10.0 mg/kg/injection, schedule: Q04DX003 (ip), vehicle: water) was 6 of 6 and the survivor count (dose: 10.0 mg/kg/injection, schedule: Q08DX002 (ip), vehicle: water) was 6 of 6. The survivor count (dose: 12.0 mg/kg/injection, schedule: Q01DX001 (ip), vehicle: none) was 8 of 8, the survivor count (dose: 12.0 mg/kg/injection, schedule: Q01DX001 (ip), vehicle: saline) was 10 of 10 and 4 of 4 and the survivor count (dose: 13.3 mg/kg/injection, schedule: Q01DX001 (ip), vehicle: water) was 6 of 6. The survivor count (dose: 15.0 mg/kg/injection, schedule: Q01DX001 (ip), vehicle: saline) was 8 of 10 and 10 of 10, the survivor count (dose: 16.0 mg/kg/injection, schedule: Q01DX001 (ip), vehicle: saline) was 10 of 10 and 4 of 4 and the survivor count (dose: 20.0 mg/kg/injection, schedule: Q01DX001 (ip), vehicle: water) was 4 of 6, 6 of 6, 8 of 8. The survivor count (dose: 20.0 mg/kg/injection, schedule: Q08DX002 (ip), vehicle: water) was 6 of 6, the survivor count (dose: 32.0 mg/kg/injection, schedule: Q01DX001 (ip), vehicle: saline) was 10 of 10 and the survivor count (dose: 64.0 mg/kg/injection, schedule: Q01DX001 (ip), vehicle: saline) was 10 of 10. For the same molecule, the survivor count (dose: 128.0 mg/kg/injection, schedule: Q01DX001 (ip), vehicle: saline) was 10 of 10.

In the case of `NCCCCNC(=O)c1csc(-c2csc(CCNC(=O)c3ccccc3)n2)n1`, the survivor count (dose: 6.25 mg/kg/injection, schedule: Q01DX011 (ip), vehicle: saline) is reported as 6 of 6, the survivor count (dose: 12.5 mg/kg/injection, schedule: Q01DX011 (ip), vehicle: saline) is reported as 6 of 6 and the survivor count (dose: 25.0 mg/kg/injection, schedule: Q01DX011 (ip), vehicle: saline) is reported as 6 of 6. The survivor count (dose: 50.0 mg/kg/injection, schedule: Q01DX011 (ip), vehicle: saline) was 6 of 6, the survivor count (dose: 100.0 mg/kg/injection, schedule: Q01DX011 (ip), vehicle: saline) was 6 of 6 and the survivor count (dose: 200.0 mg/kg/injection, schedule: Q01DX011 (ip), vehicle: saline) was 6 of 6. The survivor count (dose: 400.0 mg/kg/injection, schedule: Q01DX011 (ip), vehicle: saline) was 1 of 6.
